Earlier results in patent publication US20200032347A1, “RNA profiling for individualized diet and treatment advice” (Stichting Katholieke Universiteit, priority 2017, published 2020).
At least one structure is not confirmed: it was looked up by name or label, or the drawing left a doubt.

Assays:
E98 = conditions: cited from earlier work
E98 cells = conditions: cited from earlier work

COc1cc2nccc(Oc3ccc(NC(=O)C4(C(=O)Nc5ccc(F)cc5)CC4)cc3)c2cc1OC [cabozantinib]
tumor development in vivo (E98): delayed tumor development | proliferation rates in vitro (E98 cells; E98): decreased proliferation rates | sensitivity of E98 cell line (E98 cells; astrocytoma cell line E98 with auto-activating mutation in c-MET): highly sensitive
